PubChem BioAssay AID1159584 | Peter MacCallum Cancer Centre, 2016
In all, the deposit lists about 18,000 reagents; shown is a part drawn at random. Further read-outs or replicates are left out here. Not given: the amount of reagent, the time to read-out.

Screen: 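Knock-downs that harm CDH1-null cells more than parental MCF10A cells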 (primary screen)
Cell system: human MCF10A breast epithelial cells, parental and CDH1-null
Knock-down reagent: siRNA against human genes
Measurement: 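Cell viability by CellTiter-Glo ATP luminescence, each line scaled to the mean of mock wells across plates, then CDH1-null over parental ratio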
Direction: CDH1-null / parental viability ratio: higher = CDH1-null cells survive relatively better than parental

LZTFL1 (GeneID 54585) gave CDH1-null / parental viability ratio 1.
FAM167A (GeneID 83648) scored CDH1-null / parental viability ratio 1.07.
Against ARF5 (GeneID 381), the entry reads CDH1-null / parental viability ratio 1.
For KIF21A (GeneID 55605) the deposit lists CDH1-null / parental viability ratio 1.26.
Against GPRC5C (GeneID 55890) the deposit lists CDH1-null / parental viability ratio 0.84.
Silencing of DYNAP (GeneID 284254) resulted in: CDH1-null / parental viability ratio 1.25.
After knock-down of ZNF384 (GeneID 171017), the record shows CDH1-null / parental viability ratio 0.61.
For IFNA16 (GeneID 3449) the deposit lists CDH1-null / parental viability ratio 1.43.
F2RL3 (GeneID 9002) showed CDH1-null / parental viability ratio 1.63.
With knock-down of CRACR2B (GeneID 283229), the screen gave CDH1-null / parental viability ratio 1.15.
Against OGFOD2 (GeneID 79676), the entry reads CDH1-null / parental viability ratio 1.08.
For HLA-B (GeneID 3106), the values are CDH1-null / parental viability ratio 0.75.
Silencing of CCIN (GeneID 881) gave: CDH1-null / parental viability ratio 1.04.
CFD (GeneID 1675) showed CDH1-null / parental viability ratio 0.92.
After knock-down of PLD1 (GeneID 5337) the results were CDH1-null / parental viability ratio 1.16.
H2AC12 (GeneID 85235) gave CDH1-null / parental viability ratio 0.69.
SACS (GeneID 26278) gave CDH1-null / parental viability ratio 1.07.
After knock-down of DENND10 (GeneID 404636), the screen gave CDH1-null / parental viability ratio 0.7.
For ICOSLG (GeneID 23308), the entry reads CDH1-null / parental viability ratio 0.91.
MGAT4B (GeneID 11282) scored CDH1-null / parental viability ratio 0.73.
After knock-down of C1QBP (GeneID 708), the screen gave CDH1-null / parental viability ratio 1.
With knock-down of GTF2IRD1 (GeneID 9569), the screen gave CDH1-null / parental viability ratio 0.87.
With knock-down of ASAP3 (GeneID 55616), the record shows CDH1-null / parental viability ratio 0.71.

Copied from the listing, 2 entries:
KIF21A (GeneID 55605) — CDH1-null / parental viability ratio = 1.26
GPRC5C (GeneID 55890) — CDH1-null / parental viability ratio = 0.84

Additional reagents follow.
SPNS3 (GeneID 201305) scored CDH1-null / parental viability ratio 1.14.
After knock-down of HNRNPUL2 (GeneID 221092) the results were CDH1-null / parental viability ratio 1.1.
For DNTTIP1 (GeneID 116092), the values are CDH1-null / parental viability ratio 1.02.
Knock-down of MLH1 (GeneID 4292) gave: CDH1-null / parental viability ratio 1.17.
ATP5MJ (GeneID 9556) gave CDH1-null / parental viability ratio 1.11.
Depletion of DCAF1 (GeneID 9730) resulted in: CDH1-null / parental viability ratio 1.24.
For KLF11 (GeneID 8462), the entry reads CDH1-null / parental viability ratio 0.96.
After knock-down of APOC4 (GeneID 346) the results were CDH1-null / parental viability ratio 1.28.
HOXD11 (GeneID 3237) scored CDH1-null / parental viability ratio 0.96.
NLRP4 (GeneID 147945) showed CDH1-null / parental viability ratio 0.91.
PNMA5 (GeneID 114824) scored CDH1-null / parental viability ratio 1.09.
For STARD13 (GeneID 90627) the deposit lists CDH1-null / parental viability ratio 1.1.
